Laboratory results as given in the supplement of paper PMC11732987, “Enantioselective OTUD7B fragment discovery through chemoproteomics screening and high-throughput optimisation” (Communications Chemistry, 2025).
The other results are listed elsewhere or left out. The data scatter; read single values as rough.

The chains behind the UniProt entries cited, without tags or fusion partners. Where a name states a change or a piece, a line headed by the entry shows the natural chain unless it says otherwise. Residues count along the entry.
UniProt O75907: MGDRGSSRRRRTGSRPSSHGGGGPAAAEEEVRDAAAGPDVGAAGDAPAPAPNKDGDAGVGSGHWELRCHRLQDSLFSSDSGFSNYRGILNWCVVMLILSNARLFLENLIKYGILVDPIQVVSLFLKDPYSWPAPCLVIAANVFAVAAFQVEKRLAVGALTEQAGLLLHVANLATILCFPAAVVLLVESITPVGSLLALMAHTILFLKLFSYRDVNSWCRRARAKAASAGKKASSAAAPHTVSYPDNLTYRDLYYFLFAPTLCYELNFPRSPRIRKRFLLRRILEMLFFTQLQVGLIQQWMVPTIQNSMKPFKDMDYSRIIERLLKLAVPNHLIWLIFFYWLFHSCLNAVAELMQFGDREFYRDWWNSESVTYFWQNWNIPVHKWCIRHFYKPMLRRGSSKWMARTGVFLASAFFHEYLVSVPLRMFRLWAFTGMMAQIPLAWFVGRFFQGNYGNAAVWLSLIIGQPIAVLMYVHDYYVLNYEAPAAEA
UniProt Q5VZ89: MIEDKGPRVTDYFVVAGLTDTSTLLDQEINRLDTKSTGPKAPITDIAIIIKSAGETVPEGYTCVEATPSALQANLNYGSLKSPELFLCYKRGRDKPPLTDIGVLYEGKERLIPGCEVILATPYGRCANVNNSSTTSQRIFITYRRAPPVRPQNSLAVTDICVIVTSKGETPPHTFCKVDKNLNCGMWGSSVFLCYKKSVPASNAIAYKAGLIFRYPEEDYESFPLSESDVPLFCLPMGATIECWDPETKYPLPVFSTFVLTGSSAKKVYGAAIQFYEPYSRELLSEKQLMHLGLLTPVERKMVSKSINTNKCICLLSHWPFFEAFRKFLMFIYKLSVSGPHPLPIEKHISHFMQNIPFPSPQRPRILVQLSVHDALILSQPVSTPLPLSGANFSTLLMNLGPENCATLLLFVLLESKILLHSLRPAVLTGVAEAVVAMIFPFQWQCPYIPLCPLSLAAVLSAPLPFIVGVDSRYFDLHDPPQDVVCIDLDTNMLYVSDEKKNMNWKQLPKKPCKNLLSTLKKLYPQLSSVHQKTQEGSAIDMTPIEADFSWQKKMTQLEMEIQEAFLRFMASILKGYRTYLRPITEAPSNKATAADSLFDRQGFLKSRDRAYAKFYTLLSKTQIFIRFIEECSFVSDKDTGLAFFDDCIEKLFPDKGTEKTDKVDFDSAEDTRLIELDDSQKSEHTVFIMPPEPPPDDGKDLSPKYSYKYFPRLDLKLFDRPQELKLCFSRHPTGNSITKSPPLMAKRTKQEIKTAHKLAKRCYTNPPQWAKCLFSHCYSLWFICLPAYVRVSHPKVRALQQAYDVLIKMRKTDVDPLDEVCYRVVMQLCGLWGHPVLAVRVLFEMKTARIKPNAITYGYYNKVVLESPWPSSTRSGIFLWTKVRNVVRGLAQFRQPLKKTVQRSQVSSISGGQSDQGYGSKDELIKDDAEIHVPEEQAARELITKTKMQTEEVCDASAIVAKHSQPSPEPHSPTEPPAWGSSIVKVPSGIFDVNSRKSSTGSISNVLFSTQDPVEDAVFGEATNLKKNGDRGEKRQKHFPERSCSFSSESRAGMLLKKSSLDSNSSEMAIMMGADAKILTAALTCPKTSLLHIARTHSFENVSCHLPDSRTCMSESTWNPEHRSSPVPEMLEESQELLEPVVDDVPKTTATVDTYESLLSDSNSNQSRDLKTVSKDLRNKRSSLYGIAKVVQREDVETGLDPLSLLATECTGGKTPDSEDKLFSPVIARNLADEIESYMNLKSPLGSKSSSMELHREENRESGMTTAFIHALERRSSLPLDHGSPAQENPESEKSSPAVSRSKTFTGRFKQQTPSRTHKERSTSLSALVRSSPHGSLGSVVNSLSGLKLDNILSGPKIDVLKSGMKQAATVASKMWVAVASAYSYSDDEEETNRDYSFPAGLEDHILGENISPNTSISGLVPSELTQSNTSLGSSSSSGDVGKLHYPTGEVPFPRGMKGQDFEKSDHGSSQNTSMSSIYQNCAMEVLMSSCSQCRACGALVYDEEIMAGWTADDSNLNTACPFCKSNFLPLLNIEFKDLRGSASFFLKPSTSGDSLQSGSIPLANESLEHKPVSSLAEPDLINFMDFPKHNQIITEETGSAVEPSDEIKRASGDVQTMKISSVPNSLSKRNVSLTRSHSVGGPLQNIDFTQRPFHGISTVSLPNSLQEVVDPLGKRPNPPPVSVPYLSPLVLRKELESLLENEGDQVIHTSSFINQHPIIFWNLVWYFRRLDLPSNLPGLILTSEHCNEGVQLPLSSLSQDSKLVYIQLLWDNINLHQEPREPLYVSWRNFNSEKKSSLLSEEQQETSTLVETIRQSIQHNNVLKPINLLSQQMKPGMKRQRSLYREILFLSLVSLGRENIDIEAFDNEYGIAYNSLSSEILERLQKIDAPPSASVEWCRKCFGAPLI
UniProt Q6XZF7: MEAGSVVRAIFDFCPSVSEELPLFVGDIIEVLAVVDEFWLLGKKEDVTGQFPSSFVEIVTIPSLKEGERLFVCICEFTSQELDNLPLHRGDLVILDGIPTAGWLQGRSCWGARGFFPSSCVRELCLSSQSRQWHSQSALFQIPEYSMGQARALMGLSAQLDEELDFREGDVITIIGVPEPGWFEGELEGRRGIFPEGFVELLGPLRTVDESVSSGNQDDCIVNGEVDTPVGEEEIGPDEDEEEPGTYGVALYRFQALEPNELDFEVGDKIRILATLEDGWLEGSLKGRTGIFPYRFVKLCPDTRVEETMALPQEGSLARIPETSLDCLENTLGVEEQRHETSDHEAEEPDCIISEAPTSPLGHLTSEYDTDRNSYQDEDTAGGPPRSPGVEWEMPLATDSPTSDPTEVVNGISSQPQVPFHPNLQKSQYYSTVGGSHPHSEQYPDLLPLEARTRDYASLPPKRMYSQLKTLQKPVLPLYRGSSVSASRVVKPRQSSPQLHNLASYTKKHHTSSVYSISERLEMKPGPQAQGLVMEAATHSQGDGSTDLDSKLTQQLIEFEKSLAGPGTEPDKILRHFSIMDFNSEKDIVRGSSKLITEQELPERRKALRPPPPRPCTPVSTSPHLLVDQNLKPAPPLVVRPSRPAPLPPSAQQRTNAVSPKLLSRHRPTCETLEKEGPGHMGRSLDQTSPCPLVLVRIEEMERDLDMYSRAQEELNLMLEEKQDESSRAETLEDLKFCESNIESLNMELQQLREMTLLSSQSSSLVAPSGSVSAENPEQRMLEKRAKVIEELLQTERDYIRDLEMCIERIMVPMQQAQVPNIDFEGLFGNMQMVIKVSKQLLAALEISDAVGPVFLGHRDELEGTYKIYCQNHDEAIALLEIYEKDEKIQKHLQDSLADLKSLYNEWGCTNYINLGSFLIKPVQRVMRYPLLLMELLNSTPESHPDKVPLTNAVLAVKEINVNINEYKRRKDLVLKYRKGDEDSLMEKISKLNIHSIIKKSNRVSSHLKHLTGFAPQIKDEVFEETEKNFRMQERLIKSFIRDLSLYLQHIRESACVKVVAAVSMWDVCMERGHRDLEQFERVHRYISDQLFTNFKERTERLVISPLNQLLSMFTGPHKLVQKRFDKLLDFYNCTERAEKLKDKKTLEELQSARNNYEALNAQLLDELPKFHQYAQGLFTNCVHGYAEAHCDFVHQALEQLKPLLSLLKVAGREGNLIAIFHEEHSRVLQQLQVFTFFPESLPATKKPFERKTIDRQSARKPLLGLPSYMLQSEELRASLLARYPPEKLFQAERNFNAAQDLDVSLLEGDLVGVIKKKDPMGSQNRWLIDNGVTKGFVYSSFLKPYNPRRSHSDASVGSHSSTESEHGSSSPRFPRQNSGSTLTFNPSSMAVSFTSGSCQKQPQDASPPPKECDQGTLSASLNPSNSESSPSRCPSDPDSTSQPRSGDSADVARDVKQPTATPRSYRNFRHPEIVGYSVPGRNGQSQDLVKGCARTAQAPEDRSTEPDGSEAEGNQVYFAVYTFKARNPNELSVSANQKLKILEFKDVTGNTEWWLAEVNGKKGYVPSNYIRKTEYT
UniProt Q01658: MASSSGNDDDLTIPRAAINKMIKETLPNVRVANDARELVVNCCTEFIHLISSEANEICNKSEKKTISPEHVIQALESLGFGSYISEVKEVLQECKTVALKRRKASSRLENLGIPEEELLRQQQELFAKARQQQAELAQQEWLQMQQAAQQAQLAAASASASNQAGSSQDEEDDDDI
UniProt Q8WYQ5: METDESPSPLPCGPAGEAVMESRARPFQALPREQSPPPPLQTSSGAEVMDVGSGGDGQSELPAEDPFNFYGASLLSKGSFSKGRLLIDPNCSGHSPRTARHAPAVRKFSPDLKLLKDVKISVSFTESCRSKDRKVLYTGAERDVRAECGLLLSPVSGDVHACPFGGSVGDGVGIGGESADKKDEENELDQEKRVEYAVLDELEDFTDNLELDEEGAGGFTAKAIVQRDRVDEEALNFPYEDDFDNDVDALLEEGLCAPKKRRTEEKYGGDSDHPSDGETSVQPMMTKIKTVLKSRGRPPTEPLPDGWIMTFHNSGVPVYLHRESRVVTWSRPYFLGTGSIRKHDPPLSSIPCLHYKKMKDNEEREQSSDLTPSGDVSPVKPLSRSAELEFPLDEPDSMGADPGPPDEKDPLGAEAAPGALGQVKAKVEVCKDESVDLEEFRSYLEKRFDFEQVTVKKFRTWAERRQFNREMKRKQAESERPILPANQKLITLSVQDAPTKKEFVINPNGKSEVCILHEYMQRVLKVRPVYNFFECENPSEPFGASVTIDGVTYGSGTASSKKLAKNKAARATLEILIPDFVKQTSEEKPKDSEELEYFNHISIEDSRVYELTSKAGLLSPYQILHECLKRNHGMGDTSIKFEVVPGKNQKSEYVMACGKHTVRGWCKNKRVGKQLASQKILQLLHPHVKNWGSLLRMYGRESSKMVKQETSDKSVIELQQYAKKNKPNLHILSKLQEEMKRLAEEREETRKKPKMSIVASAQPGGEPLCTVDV
UniProt Q86Y56, 539-560: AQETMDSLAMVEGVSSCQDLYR
UniProt Q8IY37: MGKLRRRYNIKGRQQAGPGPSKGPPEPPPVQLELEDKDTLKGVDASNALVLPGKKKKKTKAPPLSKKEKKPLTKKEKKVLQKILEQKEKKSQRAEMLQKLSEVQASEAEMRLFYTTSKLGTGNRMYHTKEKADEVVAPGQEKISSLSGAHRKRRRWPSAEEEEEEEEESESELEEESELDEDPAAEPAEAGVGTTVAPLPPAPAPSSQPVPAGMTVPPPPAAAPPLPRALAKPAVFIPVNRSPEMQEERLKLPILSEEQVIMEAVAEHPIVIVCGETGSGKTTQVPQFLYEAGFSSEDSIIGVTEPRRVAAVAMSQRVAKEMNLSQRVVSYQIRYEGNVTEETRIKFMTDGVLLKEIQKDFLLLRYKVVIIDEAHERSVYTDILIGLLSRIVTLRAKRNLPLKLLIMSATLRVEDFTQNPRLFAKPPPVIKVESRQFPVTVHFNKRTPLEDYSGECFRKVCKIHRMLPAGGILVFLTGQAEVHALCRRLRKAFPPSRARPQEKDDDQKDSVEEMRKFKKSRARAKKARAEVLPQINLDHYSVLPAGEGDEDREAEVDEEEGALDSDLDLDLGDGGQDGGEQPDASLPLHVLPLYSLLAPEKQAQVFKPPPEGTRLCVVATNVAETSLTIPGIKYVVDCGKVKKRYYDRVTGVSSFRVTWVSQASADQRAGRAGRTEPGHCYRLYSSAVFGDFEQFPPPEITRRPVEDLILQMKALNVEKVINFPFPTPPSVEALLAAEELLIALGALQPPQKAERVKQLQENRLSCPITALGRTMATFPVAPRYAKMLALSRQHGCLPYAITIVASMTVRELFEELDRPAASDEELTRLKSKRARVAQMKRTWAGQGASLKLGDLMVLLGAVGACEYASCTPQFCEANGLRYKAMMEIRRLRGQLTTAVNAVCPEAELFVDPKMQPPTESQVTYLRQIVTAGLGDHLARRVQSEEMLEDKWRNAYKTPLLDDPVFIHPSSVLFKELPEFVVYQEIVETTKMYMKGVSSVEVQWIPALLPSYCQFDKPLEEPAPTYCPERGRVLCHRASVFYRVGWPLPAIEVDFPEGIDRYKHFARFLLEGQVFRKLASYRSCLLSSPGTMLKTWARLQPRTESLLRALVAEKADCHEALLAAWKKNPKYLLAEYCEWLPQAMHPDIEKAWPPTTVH
UniProt Q9UKB3: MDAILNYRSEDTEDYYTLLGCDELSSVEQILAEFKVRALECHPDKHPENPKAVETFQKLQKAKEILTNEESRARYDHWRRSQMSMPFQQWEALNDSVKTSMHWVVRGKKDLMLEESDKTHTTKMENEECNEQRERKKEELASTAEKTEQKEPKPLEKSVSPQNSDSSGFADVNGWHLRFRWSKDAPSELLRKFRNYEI

What was measured:
[1] = compound: ClCC(=O)N[C@@H]1CCCc2ccccc12; assay: log2 mean competition ratio of IA-DTB cysteine labelling (DMSO/compound) (log2 ratio); higher = stronger cysteine engagement by compound; conditions: treatment time: 4 h, cell line lysate: HEK293T
Experimental: (§1)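 IA-DTB competitive cysteine chemoproteomics in HEK293T RIPA lysate. Lysates were treated with compound 29 or 30 at 50 or 200 µM for 4 h, then IA-DTB (500 µM, 1 h), trypsin-digested, NeutrAvidin-enriched and analysed by diaPASEF. Competition ratio = intensity DMSO / intensity compound (n=4 treated, n=64 DMSO); binding: mean log2 CR ≥ 1 and p ≤ 0.05 plus QC filters. Target is the cysteine site.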

[2] = compound: ClCC(=O)N[C@H]1CCCc2ccccc12; assay: as above; conditions: treatment time: 4 h, cell line lysate: HEK293T
Experimental: as §1

Row | Target | log2 mean competition ratio ([1]; 50 µM) | log2 mean competition ratio ([1]; 200 µM) | log2 mean competition ratio ([2]; 50 µM) | log2 mean competition ratio ([2]; 200 µM)
1 | DGAT1 C218 (UniProt O75907) | -0.0461 | 0.0827 | 0.148 | 0.29
2 | DENND4C C955 (UniProt Q5VZ89) | -0.482 | -0.12 | -0.52 | -0.00346
3 | DHPS C177 | 0.458 | 0.0075 | 0.588 | 0.0468
4 | DIP2A C6 (UniProt Q14689) | 0.017 | -0.0877 | 0.307 | 0.188
5 | DENND4C C126 (UniProt Q5VZ89) | 1.29 | 4.1 | -0.356 | 0.135
6 | DLGAP4 C736 (UniProt Q9Y2H0) | 0.0221 | 0.376 | -0.119 | 0.409
7 | DNMBP C327 (UniProt Q6XZF7) | -0.27 | 0.379 | -0.349 | -0.0904
8 | DR1 C94 (UniProt Q01658) | -0.0107 | -0.182 | 0.308 | -0.117
9 | DRAP1 C54 | 0.134 | 0.104 | 0.0513 | 0.14
10 | DHX40 C33 (UniProt Q8IX18) | -0.0423 | 0.0907 | -0.306 | 0.0768
11 | DGCR8 C430 (UniProt Q8WYQ5) | 0.0385 | -0.0191 | 0.293 | 0.037
12 | DGCR8 C769 (UniProt Q8WYQ5) | 0.118 | -0.466 | 0.0369 | 0.0727
13 | DNAAF5 C612 (UniProt Q86Y56) | 0.0831 | -0.088 | 0.0925 | -0.0962
14 | DHX37 C1083 (UniProt Q8IY37) | 0.00925 | 0.104 | -0.11 | 0.128
15 | DIDO1 C455 (UniProt Q9BTC0) | 0.188 | 0.0334 | 0.14 | 0.0199
16 | DNAJC13 C904 (UniProt O75165) | 0.0696 | -0.467 | 0.0828 | -0.382
17 | DNAAF5 C555 (UniProt Q86Y56) | -0.19 | -0.172 | 0.71 | -0.269
18 | DHX30 C309 (UniProt Q7L2E3) | -0.0379 | 0.11 | -0.179 | 0.203
19 | DNAJC13 C2110 (UniProt O75165) | -0.14 | 0.0188 | -0.406 | -0.0912
20 | DGKH C139 (UniProt Q86XP1) |  | -0.0326 | -0.364 | 0.0673
21 | DNAJC12 C129 (UniProt Q9UKB3) | -0.0403 | -0.0688 | -0.06 | -0.027

Looked up above.
Value of DHX30 C309 (UniProt Q7L2E3) under log2 mean competition ratio ([1]; 200 µM): 0.11
Value of DLGAP4 C736 (UniProt Q9Y2H0) under log2 mean competition ratio ([1]; 50 µM): 0.0221
